## Percent effect of library compounds

The chains behind the UniProt entries cited, without tags or fusion partners. Residues count along the entry.
UniProt A4I591, 1-473: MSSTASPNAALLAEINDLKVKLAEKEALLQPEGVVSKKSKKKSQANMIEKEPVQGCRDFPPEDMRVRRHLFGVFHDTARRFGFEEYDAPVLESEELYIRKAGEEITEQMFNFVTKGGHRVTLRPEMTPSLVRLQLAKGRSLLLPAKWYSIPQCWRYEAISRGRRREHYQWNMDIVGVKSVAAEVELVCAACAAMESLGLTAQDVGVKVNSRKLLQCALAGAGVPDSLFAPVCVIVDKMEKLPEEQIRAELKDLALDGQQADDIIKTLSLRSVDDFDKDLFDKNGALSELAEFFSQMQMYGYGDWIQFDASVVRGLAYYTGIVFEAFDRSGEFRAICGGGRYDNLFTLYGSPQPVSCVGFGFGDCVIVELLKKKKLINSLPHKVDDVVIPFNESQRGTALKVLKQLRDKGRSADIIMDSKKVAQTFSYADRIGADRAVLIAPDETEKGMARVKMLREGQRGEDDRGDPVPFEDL
UniProt Q8IDJ8, 1-583: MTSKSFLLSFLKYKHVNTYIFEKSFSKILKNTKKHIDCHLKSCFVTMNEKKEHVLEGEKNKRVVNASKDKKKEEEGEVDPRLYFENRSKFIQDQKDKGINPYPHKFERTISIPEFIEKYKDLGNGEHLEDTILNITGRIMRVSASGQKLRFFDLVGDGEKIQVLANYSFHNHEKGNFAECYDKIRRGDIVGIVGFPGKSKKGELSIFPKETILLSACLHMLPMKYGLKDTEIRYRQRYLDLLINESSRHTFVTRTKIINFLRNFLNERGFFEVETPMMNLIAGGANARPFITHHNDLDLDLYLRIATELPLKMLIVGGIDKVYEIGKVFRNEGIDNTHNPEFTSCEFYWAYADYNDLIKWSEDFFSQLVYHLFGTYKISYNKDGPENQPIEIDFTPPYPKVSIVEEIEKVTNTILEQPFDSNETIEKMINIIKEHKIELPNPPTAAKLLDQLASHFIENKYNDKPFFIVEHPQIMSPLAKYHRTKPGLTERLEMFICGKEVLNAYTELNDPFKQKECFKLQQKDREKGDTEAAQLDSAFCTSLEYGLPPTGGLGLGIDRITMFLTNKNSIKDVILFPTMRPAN

LiHisRS: 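Enzyme assay of histidyl-tRNA synthetase; the read-out is not stated. Target: Histidine-tRNA ligase, Leishmania infantum (UniProt A4I591). Tested at 30 µM. Higher reads as stronger inhibition (inferred: compounds with an IC50 in retests scored well above the rest). The assay is labelled LdHisRS but filed under L. infantum. Of about 69,000 compounds tested this way, about 410 (0.6%) reached 50% or more in at least one test.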
PfKRS1: 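Lysine-tRNA ligase, Plasmodium falciparum 3D7 (UniProt Q8IDJ8). Enzyme assay of the cytosolic lysyl-tRNA synthetase in 384-well plates, read by luminescence. Compounds at 30 µM. Direction is inferred from only a few compounds that gave an IC50; most scored high, so higher reads as stronger inhibition. Size under these conditions: about 69,000 compounds, about 49 of them at 50% or above in at least one test.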

Values are the deposited “Percent Effect”, in %. The record does not define 0% and 100%; most values in the screen are far below 50% and negative numbers occur (in some assays of this library far below -100). The compounds are a random part of those screened.

compound,LiHisRS,PfKRS1
COCC(=O)N1CCC(Oc2cccc(C)c2)CC1,16.44%,2.674%
CCCc1ccc2oc(C(=O)N3CCN(CCOC)CC3)c(C)c2c1,11.48%,3.277%
Cc1nc(C2CCNCC2)cc(N(C)CCc2cn[nH]c2)n1,13.22%,1.979%
CCS(=O)(=O)N1C[C@@H]2CN(Cc3ccco3)CCO[C@@H]2C1,19.3%,-8.3%
CNC(=O)c1cccnc1NCc1ccc(-n2cccn2)cc1,11.76%,3.072%
CC(CO)Nc1ccc(-c2nc(Cc3ccc(F)cc3)no2)cn1 (stereo unspecified),0%,4.342%
O=C1CCCc2[nH]c(=O)c(C(=O)N(Cc3ccsc3)C3CC3)cc21,18.35%,1.079%
CC(C)N1CCc2ncn(C(C)C)c2C1C(=O)NCCN1CCCC1 (stereo unspecified),14.29%,5.738%
COc1ccc(C)cc1CN(C)CCCNS(C)(=O)=O,2.632%,0.3637%
NC(=O)N1CCc2ncc(CNC(=O)CC3CC3)n2CC1,4.505%,0.8876%
Cc1cc(CN2CCN(CC(O)c3ccc(Cl)cc3)CC2)no1 (stereo unspecified),13.56%,0.5262%
CNc1cc(CNC(=O)c2ccccc2)nc(-c2ccncc2)n1,25%,2.159%
Cc1nc(C)n(C2CCCN(C(=O)c3nc(C)n4ccccc34)C2)n1 (stereo unspecified),4.959%,6.059%
CCn1c(C2CCCN(Cc3ccnc4ccccc34)C2)nn(C)c1=O (stereo unspecified),8.197%,1.524%
Cc1cn2c(n1)C(CNCc1cnn3ccccc13)CCC2 (stereo unspecified),1.55%,-0.1195%
Cc1cc(NC(=O)c2ccc(CN3CC[C@H](O)C3)cc2)ccc1F,26.53%,1.102%
CCCS(=O)(=O)c1ncc(CN2CCC(C)CC2)n1CC1CCCO1 (stereo unspecified),9.091%,3.21%
Cc1ccccc1-n1cc(-c2ccnc(N3CCCC(CN)C3)n2)cn1 (stereo unspecified),6.993%,4.913%
CN(Cc1nc(Cc2cccc(C(F)(F)F)c2)no1)C(C1CC1)C1CC1,-1.399%,0.4657%
Cc1cc(N2CCC(N(C)C(=O)c3cccs3)CC2)nc(C)n1,13.25%,3.895%
CCc1ccccc1OC1CN(C(=O)CN(C)Cc2ccncc2)C1,14.29%,1.104%
Cn1ccnc1CN1CCO[C@H]2C(CNC(=O)c3ccco3)CC[C@@H]21 (stereo partly specified),21.37%,2.728%
FC1(F)CCN(Cc2cccnc2)CC12CCN(c1ccccn1)C2 (stereo unspecified),19.55%,2.154%
NS(=O)(=O)c1ccc(CNCC(=O)NCc2ccc(Cl)cc2Cl)cc1,18.42%,4.873%
COCCc1nc(CN2CC(C)(c3ccccc3)CCC2=O)no1 (stereo unspecified),1.667%,7.335%
O=C(NCc1ccon1)c1c(F)cc(Br)cc1F,7.865%,0.6696%
Cn1cc(CN2CCC3(CCC(C(=O)NCC4CC4)C3)CC2)cn1 (stereo unspecified),13.16%,4.198%
CC(C)Cn1c2c(ccc1=O)CC(NC(=O)c1ccsc1)CC2 (stereo unspecified),14%,1.376%
COCCN1CCN(CCCc2nnnn2-c2ccccc2)CC1,15.52%,-0.7019%
O=C(CCC(=O)Nc1nnc(C(F)(F)F)s1)NCC1CCCO1 (stereo unspecified),21.05%,4.246%
Cc1cnn(CCC(=O)N(CC2CN(C)CCO2)c2nccs2)c1 (stereo unspecified),9.783%,3.677%
CCS(=O)(=O)N1CCc2ccc(NC(=O)Nc3ccc(F)cc3F)cc21,20.39%,-2.211%
Cn1cc(C(=O)N2CCCN(C3Cc4ccccc4C3)CC2)cn1,18.33%,8.058%
O=C(O)c1cnc(N2CCC(c3nccn3CC3CC3)CC2)c(Cl)c1,13.11%,2.587%
O=C(N1CCOCC1)N1CC[C@@](O)(c2ccccc2)[C@H]2CCCC[C@@H]21,3.175%,3.454%
O=C(Nc1ccc(S(=O)(=O)Nc2c(F)cccc2F)cc1)N1CCCC1,0%,-1.156%
CN(C)C(=O)COC[C@]12COC[C@H]1CN(C1CCCC1)C2,11.82%,4.129%
CN(C)C1CCCN(C(=O)c2cccc(-c3ncc[nH]3)c2)CC1 (stereo unspecified),14.52%,4.396%
O=C1Nc2ccccc2/C1=C1\CCCCCN1,7.692%,-1.075%
Cc1csc(C2(NCC(O)COc3ccc(F)cc3)CCC2)n1 (stereo unspecified),2.632%,4.106%
Cc1cc(C(=O)N(CCN(C)C)Cc2ccc(Cl)cc2)no1,12.33%,0.394%
CC(NC1(CNS(=O)(=O)N(C)C)CCCC1)c1ccccc1 (stereo unspecified),10.92%,2.785%
CCCn1ccnc1CN1CCCC1c1cccc(-n2ccnc2)n1 (stereo unspecified),7.368%,-2.419%

3 of the entries, repeated:

{"compound": "O=C(O)c1cnc(N2CCC(c3nccn3CC3CC3)CC2)c(Cl)c1", "LiHisRS": 13.11, "PfKRS1": 2.587}
{"compound": "CN(C)C(=O)COC[C@]12COC[C@H]1CN(C1CCCC1)C2", "LiHisRS": 11.82, "PfKRS1": 4.129}
{"compound": "CN(C)C1CCCN(C(=O)c2cccc(-c3ncc[nH]3)c2)CC1", "stereo": "stereo unspecified", "LiHisRS": 14.52, "PfKRS1": 4.396}

Data taken from ChEMBL document CHEMBL3988442, “University of Dundee, Small-Polar-MMV Screening Library” (2021).